B1: Sodium-dependent neutral amino acid transporter B(0)AT2 (protein, UniProt Q9H2J7 1-730)
chain: MPKNSKVVKRELDDDVTESVKDLLSNEDAADDAFKTSELIVDGQEEKDTDVEEGSEVEDERPAWNSKLQYILAQVGFSVGLGNVWRFPYLCQKNGGGAYLLPYLILLMVIGIPLFFLELSVGQRIRRGSIGVWNYISPKLGGIGFASCVVCYFVALYYNVIIGWSLFYFSQSFQQPLPWDQCPLVKNASHTFVEPECEQSSATTYYWYREALNISSSISESGGLNWKMTICLLAAWVMVCLAMIKGIQSSGKIIYFSSLFPYVVLICFLIRAFLLNGSIDGIRHMFTPKLEIMLEPKVWREAATQVFFALGLGFGGVIAFSSYNKRDNNCHFDAVLVSFINFFTSVLATLVVFAVLGFKANVINEKCITQNSETIMKFLKMGNISQDIIPHHINLSTVTAEDYHLVYDIIQKVKEEEFPALHLNSCKIEEELNKAVQGTGLAFIAFTEAMTHFPASPFWSVMFFLMLVNLGLGSMFGTIEGIVTPIVDTFKVRKEILTVICCLLAFCIGLIFVQRSGNYFVTMFDDYSATLPLLIVVILENIAVCFVYGIDKFMEDLKDMLGFAPSRYYYYMWKYISPLMLLSLLIASVVNMGLSPPGYNAWIEDKASEEFLSYPTWGLVVCVSLVVFAILPVPVVFIVRRFNLIDDSSGNLASVTYKRGRVLKEPVNLEGDDTSLIHGKIPSEMPSPNFGKNIYRKQSGSPTLDTAPNGRYGIGYLMADIMPDMPESDL
B2: Sodium-coupled neutral amino acid transporter 1 (protein, UniProt Q9H2H9 1-487)
chain: MMHFKSGLELTELQNMTVPEDDNISNDSNDFTEVENGQINSKFISDRESRRSLTNSHLEKKKCDEYIPGTTSLGMSVFNLSNAIMGSGILGLAFALANTGILLFLVLLTSVTLLSIYSINLLLICSKETGCMVYEKLGEQVFGTTGKFVIFGATSLQNTGAMLSYLFIVKNELPSAIKFLMGKEETFSAWYVDGRVLVVIVTFGIILPLCLLKNLGYLGYTSGFSLSCMVFFLIVVIYKKFQIPCIVPELNSTISANSTNADTCTPKYVTFNSKTVYALPTIAFAFVCHPSVLPIYSELKDRSQKKMQMVSNISFFAMFVMYFLTAIFGYLTFYDNVQSDLLHKYQSKDDILILTVRLAVIVAVILTVPVLFFTVRSSLFELAKKTKFNLCRHTVVTCILLVVINLLVIFIPSMKDIFGVVGVTSANMLIFILPSSLYLKITDQDGDKGTQRIWAALFLGLGVLFSLVSIPLVIYDWACSSSSDEGH
B3: Sodium-coupled neutral amino acid transporter 2 (protein, UniProt Q96QD8 1-506)
chain: MKKAEMGRFSISPDEDSSSYSSNSDFNYSYPTKQAALKSHYADVDPENQNFLLESNLGKKKYETEFHPGTTSFGMSVFNLSNAIVGSGILGLSYAMANTGIALFIILLTFVSIFSLYSVHLLLKTANEGGSLLYEQLGYKAFGLVGKLAASGSITMQNIGAMSSYLFIVKYELPLVIQALTNIEDKTGLWYLNGNYLVLLVSLVVILPLSLFRNLGYLGYTSGLSLLCMVFFLIVVICKKFQVPCPVEAALIINETINTTLTQPTALVPALSHNVTENDSCRPHYFIFNSQTVYAVPILIFSFVCHPAVLPIYEELKDRSRRRMMNVSKISFFAMFLMYLLAALFGYLTFYEHVESELLHTYSSILGTDILLLIVRLAVLMAVTLTVPVVIFPIRSSVTHLLCASKDFSWWRHSLITVSILAFTNLLVIFVPTIRDIFGFIGASAASMLIFILPSAFYIKLVKKEPMKSVQKIGALFFLLSGVLVMTGSMALIVLDWVHNAPGGGH
B4: Rab11 family-interacting protein 1 (protein, UniProt Q6WKZ4 1-1283)
chain: MSLMVSAGRGLGAVWSPTHVQVTVLQARGLRAKGPGGTSDAYAVIQVGKEKYATSVSERSLGAPVWREEATFELPSLLSSGPAAAATLQLTVLHRALLGLDKFLGRAEVDLRDLHRDQGRRKTQWYKLKSKPGKKDKERGEIEVDIQFMRNNMTASMFDLSMKDKSRNPFGKLKDKIKGKNKDSGSDTASAIIPSTTPSVDSDDESVVKDKKKKSKIKTLLSKSNLQKTPLSQSMSVLPTSKPEKVLLRPGDFQSQWDEDDNEDESSSASDVMSHKRTASTDLKQLNQVNFTLPKKEGLSFLGGLRSKNDVLSRSNVCINGNHVYLEQPEAKGEIKDSSPSSSPSPKGFRKKHLFSSTENLAAGSWKEPAEGGGLSSDRQLSESSTKDSLKSMTLPSYRPAPLVSGDLRENMAPANSEATKEAKESKKPESRRSSLLSLMTGKKDVAKGSEGENPLTVPGREKEGMLMGVKPGEDASGPAEDLVRRSEKDTAAVVSRQGSSLNLFEDVQITEPEAEPESKSEPRPPISSPRAPQTRAVKPRLEVSPEAQPTARLPSPTDSPSSLPPLPSSSGQASVPSELGHGADTQSSESPSVFSSLSSPIAAPISTSTPIESWPLVDRGQAKSEGPPLLPKAELQTESLTPVPNSGSSALGSLFKQPSFPANKGTEDSLMGRTRETGTEKNTSSLELEESLPEQPETGRQEEELPRFPCKKQDYSPSSGEAQEVPFALSLSSDGAVSPVGELAAGGDRDLESQAGSLVESKARDAAEEVAPPLPMGASVPSIDSMMRKLEEMGLNLRKDQKKTKKRVSFSEQLFTEEAVAGAALLVEGHSSCPQELNPAWSVAGNASDGEPPESPHAEDSERESVTTPGPATCGAPASPADHLLLPSQEESFSEVPMSEASSAKDTPLFRMEGEDALVTQYQSKASDHEGLLSDPLSDLQLVSDFKSPIMADLNLSLPSIPEVASDDERIDQVEDDGDQVEDDGETAKSSTLDIGALSLGLVVPCPERGKGPSGEADRLVLGEGLCDFRLQAPQASVTAPSEQTTEFGIHKPHLGKSSSLDKQLPGPSGGEEEKPMGNGSPSPPPGTSLDNPVPSPSPSEIFPVTHSFPSSAHSDTHHTSTAESQKKATAEGSAGRVENFGKRKPLLQAWVSPSETHPVSAQPGAGTGSAKHRLHPVKPMNAMATKVANCSLGTATIISENLNNEVMMKKYSPSDPAFAYAQLTHDELIQLVLKQKETISKKEFQVRELEDYIDNLLVRVMEETPNILRIPTQVGKKAGKM
B5: Dyslexia-associated protein KIAA0319-like protein (protein, UniProt Q8IZA0 1-1049)
chain: MEKRLGVKPNPASWILSGYYWQTSAKWLRSLYLFYTCFCFSVLWLSTDASESRCQQGKTQFGVGLRSGGENHLWLLEGTPSLQSCWAACCQDSACHVFWWLEGMCIQADCSRPQSCRAFRTHSSNSMLVFLKKFQTADDLGFLPEDDVPHLLGLGWNWASWRQSPPRAALRPAVSSSDQQSLIRKLQKRGSPSDVVTPIVTQHSKVNDSNELGGLTTSGSAEVHKAITISSPLTTDLTAELSGGPKNVSVQPEISEGLATTPSTQQVKSSEKTQIAVPQPVAPSYSYATPTPQASFQSTSAPYPVIKELVVSAGESVQITLPKNEVQLNAYVLQEPPKGETYTYDWQLITHPRDYSGEMEGKHSQILKLSKLTPGLYEFKVIVEGQNAHGEGYVNVTVKPEPRKNRPPIAIVSPQFQEISLPTTSTVIDGSQSTDDDKIVQYHWEELKGPLREEKISEDTAILKLSKLVPGNYTFSLTVVDSDGATNSTTANLTVNKAVDYPPVANAGPNQVITLPQNSITLFGNQSTDDHGITSYEWSLSPSSKGKVVEMQGVRTPTLQLSAMQEGDYTYQLTVTDTIGQQATAQVTVIVQPENNKPPQADAGPDKELTLPVDSTTLDGSKSSDDQKIISYLWEKTQGPDGVQLENANSSVATVTGLQVGTYVFTLTVKDERNLQSQSSVNVIVKEEINKPPIAKITGNVVITLPTSTAELDGSKSSDDKGIVSYLWTRDEGSPAAGEVLNHSDHHPILFLSNLVEGTYTFHLKVTDAKGESDTDRTTVEVKPDPRKNNLVEIILDINVSQLTERLKGMFIRQIGVLLGVLDSDIIVQKIQPYTEQSTKMVFFVQNEPPHQIFKGHEVAAMLKSELRKQKADFLIFRALEVNTVTCQLNCSDHGHCDSFTKRCICDPFWMENFIKVQLRDGDSNCEWSVLYVIIATFVIVVALGILSWTVICCCKRQKGKPKRKSKYKILDATDQESLELKPTSRAGIKQKGLLLSSSLMHSESELDSDDAIFTWPDREKGKLLHGQNGSVPNGQTPLKARSPREEIL
B6: HA-RAB29 (protein, UniProt O14966 1-203)
chain: MGSRDHLFKVLVVGDAAVGKTSLVQRYSQDSFSKHYKSTVGVDFALKVLQWSDYEIVRLQLWDIAGQERFTSMTRLYYRDASACVIMFDVTNATTFSNSQRWKQDLDSKLTLPNGEPVPCLLLANKCDLSPWAVSRDQIDRFSKENGFTGWTETSVKENKNINEAMRVLIEKMMRNSTEDIMSLSTQGDYINLQTKSSSWSCC
B7: Secretory carrier-associated membrane protein 1 (protein, UniProt O15126 1-338)
chain: MSDFDSNPFADPDLNNPFKDPSVTQVTRNVPPGLDEYNPFSDSRTPPPGGVKMPNVPNTQPAIMKPTEEHPAYTQIAKEHALAQAELLKRQEELERKAAELDRREREMQNLSQHGRKNNWPPLPSNFPVGPCFYQDFSVDIPVEFQKTVKLMYYLWMFHAVTLFLNIFGCLAWFCVDSARAVDFGLSILWFLLFTPCSFVCWYRPLYGAFRSDSSFRFFVFFFVYICQFAVHVLQAAGFHNWGNCGWISSLTGLNQNIPVGIMMIIIAALFTASAVISLVMFKKVHGLYRTTGASFEKAQQEFATGVMSNKTVQTAAANAASTAASSAAQNAFKGNQI

Amino acid sequences for entries named in this document (tags omitted). Residues count along the entry.
UniProt Q5S007: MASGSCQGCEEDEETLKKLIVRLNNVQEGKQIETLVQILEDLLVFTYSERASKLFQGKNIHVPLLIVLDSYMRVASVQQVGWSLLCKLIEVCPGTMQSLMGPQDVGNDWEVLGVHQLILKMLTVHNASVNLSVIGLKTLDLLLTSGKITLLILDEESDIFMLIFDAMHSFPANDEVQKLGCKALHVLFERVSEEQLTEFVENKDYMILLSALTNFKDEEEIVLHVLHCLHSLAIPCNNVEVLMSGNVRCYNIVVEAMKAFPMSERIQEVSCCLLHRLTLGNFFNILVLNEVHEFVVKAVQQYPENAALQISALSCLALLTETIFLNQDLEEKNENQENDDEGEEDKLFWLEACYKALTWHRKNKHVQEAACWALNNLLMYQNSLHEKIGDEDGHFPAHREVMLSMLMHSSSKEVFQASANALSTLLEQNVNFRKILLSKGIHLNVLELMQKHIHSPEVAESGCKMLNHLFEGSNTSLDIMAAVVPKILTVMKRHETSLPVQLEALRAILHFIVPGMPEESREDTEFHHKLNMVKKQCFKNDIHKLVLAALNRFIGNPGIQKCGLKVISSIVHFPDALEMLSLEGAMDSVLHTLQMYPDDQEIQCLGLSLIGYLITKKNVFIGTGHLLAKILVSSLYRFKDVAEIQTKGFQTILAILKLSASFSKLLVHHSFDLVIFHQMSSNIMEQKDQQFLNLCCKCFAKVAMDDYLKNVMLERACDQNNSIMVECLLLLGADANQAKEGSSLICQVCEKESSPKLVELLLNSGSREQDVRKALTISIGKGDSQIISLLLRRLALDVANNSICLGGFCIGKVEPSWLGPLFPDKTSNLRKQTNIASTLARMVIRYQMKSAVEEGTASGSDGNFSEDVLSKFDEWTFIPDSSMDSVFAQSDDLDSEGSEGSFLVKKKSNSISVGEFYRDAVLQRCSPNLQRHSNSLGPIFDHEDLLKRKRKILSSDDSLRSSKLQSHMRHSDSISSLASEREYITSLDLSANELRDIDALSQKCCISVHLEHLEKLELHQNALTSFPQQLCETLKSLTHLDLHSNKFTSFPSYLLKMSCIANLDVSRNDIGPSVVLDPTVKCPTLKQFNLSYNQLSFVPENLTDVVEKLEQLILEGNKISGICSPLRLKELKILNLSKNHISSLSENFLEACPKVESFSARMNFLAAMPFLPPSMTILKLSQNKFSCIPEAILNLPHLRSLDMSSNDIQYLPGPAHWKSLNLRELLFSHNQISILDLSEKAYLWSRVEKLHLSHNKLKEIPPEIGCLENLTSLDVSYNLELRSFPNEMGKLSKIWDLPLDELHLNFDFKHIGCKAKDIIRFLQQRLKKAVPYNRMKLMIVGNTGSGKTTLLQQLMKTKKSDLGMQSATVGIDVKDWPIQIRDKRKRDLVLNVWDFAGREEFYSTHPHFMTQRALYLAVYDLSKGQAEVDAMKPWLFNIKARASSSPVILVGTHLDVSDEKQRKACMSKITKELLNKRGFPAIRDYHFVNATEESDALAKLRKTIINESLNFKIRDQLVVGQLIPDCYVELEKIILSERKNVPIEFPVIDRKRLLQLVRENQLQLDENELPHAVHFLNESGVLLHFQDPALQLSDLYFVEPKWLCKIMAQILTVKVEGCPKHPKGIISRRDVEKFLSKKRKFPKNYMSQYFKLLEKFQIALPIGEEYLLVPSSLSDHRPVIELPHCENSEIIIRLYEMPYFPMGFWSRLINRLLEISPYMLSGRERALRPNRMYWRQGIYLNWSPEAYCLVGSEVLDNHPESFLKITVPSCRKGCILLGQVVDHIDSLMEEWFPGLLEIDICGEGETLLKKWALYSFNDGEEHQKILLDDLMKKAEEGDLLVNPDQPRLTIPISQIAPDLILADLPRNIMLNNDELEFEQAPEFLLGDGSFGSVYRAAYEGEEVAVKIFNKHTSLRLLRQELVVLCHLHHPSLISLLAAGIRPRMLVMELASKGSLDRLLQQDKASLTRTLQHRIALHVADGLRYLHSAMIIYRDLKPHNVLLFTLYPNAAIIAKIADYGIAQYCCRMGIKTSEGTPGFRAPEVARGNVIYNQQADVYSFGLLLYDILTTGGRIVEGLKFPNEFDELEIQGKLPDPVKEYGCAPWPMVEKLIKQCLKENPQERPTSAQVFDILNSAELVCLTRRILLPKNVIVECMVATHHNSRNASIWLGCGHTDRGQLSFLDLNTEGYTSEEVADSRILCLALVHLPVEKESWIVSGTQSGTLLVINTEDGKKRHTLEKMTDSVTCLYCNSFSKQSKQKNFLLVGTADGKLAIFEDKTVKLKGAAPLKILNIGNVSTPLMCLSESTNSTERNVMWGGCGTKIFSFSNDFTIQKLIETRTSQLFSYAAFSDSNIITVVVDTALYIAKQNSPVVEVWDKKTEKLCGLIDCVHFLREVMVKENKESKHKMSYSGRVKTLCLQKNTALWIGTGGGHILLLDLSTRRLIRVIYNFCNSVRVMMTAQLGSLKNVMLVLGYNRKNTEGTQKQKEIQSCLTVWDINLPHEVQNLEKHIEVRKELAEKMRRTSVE
UniProt Q92692, residues 32-538: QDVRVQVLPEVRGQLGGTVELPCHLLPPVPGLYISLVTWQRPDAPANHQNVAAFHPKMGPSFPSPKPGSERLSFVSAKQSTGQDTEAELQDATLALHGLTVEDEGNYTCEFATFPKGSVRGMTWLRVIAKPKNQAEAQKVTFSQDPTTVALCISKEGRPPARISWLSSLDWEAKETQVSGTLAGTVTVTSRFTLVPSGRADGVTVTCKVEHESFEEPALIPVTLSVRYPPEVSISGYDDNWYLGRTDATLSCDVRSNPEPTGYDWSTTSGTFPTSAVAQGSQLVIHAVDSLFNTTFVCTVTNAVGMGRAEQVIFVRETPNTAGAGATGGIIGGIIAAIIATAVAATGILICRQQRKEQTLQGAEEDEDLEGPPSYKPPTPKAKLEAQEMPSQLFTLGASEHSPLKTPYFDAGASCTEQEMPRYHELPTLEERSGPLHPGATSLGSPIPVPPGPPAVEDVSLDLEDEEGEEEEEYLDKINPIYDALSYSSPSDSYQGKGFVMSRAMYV
UniProt Q04656: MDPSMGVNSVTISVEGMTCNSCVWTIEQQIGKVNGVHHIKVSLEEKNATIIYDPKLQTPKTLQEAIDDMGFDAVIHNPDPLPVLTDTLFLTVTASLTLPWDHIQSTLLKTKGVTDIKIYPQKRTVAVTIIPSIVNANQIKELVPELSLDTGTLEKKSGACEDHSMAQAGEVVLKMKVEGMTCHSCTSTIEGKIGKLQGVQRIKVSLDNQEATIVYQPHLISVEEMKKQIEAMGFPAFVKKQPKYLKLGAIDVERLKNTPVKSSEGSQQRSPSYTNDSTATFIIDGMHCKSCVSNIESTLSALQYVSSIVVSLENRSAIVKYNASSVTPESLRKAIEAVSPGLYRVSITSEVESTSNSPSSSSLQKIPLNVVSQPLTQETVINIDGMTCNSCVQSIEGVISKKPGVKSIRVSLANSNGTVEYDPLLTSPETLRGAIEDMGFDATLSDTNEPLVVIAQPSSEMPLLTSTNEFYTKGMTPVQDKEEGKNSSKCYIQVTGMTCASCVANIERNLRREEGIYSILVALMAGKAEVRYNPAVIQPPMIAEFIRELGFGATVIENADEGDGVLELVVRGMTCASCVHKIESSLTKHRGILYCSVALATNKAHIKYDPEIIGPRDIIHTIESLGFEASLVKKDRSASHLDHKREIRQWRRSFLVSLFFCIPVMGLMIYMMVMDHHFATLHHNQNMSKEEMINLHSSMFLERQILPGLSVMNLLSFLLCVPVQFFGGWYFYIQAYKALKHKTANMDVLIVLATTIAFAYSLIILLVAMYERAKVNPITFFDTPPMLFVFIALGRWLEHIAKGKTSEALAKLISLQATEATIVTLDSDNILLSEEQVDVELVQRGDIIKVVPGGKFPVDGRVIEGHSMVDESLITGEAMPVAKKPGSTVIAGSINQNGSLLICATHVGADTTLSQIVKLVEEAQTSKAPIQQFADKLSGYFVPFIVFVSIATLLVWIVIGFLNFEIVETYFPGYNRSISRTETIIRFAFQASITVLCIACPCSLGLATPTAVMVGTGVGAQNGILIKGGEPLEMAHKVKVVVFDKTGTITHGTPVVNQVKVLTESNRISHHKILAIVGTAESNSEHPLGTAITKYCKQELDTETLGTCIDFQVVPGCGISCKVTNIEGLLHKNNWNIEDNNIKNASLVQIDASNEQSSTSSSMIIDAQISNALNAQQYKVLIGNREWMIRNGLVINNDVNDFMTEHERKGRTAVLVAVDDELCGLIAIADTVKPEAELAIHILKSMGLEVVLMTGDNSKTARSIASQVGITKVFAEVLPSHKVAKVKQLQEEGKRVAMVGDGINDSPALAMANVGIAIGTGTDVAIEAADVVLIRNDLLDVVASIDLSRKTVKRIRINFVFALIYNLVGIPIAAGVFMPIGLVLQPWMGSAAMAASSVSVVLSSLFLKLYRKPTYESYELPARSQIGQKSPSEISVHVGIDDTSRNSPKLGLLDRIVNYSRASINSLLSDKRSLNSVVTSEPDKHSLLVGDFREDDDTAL
UniProt Q9UIQ6: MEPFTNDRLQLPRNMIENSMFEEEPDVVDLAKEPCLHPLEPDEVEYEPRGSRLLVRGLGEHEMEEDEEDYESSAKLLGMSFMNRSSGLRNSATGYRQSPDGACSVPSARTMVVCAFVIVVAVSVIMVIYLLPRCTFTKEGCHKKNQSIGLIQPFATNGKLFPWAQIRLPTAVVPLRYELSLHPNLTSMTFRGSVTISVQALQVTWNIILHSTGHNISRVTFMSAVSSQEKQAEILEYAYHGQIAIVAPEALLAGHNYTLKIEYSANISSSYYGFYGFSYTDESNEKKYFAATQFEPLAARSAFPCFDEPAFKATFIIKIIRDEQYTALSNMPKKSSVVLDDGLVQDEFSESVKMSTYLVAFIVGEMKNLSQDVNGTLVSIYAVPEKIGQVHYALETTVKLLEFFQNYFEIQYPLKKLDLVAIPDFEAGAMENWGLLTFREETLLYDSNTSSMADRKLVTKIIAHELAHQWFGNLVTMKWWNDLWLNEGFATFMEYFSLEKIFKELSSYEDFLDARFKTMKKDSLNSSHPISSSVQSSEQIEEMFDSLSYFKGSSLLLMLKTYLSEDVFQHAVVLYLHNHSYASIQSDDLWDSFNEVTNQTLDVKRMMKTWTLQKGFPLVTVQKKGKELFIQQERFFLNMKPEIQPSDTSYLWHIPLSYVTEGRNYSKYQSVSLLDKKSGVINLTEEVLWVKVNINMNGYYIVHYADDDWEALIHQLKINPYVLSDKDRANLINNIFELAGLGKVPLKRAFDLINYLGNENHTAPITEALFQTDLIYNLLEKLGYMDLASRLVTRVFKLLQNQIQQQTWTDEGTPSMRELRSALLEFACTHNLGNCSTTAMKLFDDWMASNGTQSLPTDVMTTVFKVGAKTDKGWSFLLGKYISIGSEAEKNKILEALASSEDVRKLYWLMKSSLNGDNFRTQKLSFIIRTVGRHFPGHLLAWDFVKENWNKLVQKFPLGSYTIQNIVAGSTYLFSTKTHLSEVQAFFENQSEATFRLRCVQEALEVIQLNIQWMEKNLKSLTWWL
UniProt Q14739: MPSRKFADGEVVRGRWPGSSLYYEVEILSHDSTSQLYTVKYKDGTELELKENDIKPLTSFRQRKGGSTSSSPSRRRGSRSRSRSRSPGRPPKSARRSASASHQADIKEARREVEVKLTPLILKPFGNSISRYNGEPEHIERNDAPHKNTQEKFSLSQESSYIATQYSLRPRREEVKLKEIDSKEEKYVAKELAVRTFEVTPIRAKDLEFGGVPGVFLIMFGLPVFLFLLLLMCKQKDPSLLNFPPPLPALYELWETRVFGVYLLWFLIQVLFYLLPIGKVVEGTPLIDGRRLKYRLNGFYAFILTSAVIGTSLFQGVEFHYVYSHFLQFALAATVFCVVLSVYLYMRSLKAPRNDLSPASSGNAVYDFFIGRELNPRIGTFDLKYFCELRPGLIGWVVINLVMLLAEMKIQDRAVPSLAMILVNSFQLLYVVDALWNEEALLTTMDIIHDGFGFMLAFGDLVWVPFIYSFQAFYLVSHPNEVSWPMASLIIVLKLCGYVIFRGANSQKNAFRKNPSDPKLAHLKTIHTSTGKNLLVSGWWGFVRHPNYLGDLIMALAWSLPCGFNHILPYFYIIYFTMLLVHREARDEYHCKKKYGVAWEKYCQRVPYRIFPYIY
UniProt P61006: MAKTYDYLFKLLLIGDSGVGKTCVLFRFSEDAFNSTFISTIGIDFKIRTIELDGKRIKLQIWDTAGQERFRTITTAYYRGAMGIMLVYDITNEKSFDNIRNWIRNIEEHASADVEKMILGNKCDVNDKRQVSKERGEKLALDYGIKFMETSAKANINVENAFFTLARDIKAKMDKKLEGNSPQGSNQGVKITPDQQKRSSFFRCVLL

Results are given in words; binding and its absence hold for the method and conditions named. Binding seen in cells or lysates may run through a third protein. A yes stands for co-enrichment or nearness to the bait. Other partners may have been found. Tags and fused reporters may be left off the sequences shown.

The target in this test is miniTurbo-LRRK2 (human) (UniProt Q5S007). Nature of the test: proximity labelling; mT-LRRK2 co-expressed with HA-RAB29 against empty pcDNA3.0 vector; biotin labelling, Strep-Tactin enrichment, LC-MSMS, LFQ with FDR-controlled t test.
On to “Calcium-transporting ATPase type 2 C member 1 (from UniProt P98194 1-919)”, for which the binding entry is given as “binds”.

For the molecule “Zinc transporter 6 (from UniProt Q6NXT4 1-461)”, the binding entry is recorded as “binds”.

Consider Nectin-2 (from UniProt Q92692 32-538), for which the binding entry was “binds”.

With “Cation-independent mannose-6-phosphate receptor (from UniProt P11717 41-2491)”, the binding result is on record as “binds”.

On to “Zinc finger CCCH-type antiviral protein 1 (from UniProt Q7Z2W4 1-902)”, for which the binding entry was “binds”.

“Stromal interaction molecule 1 (from UniProt Q13586 23-685)”: the binding result was “binds”.

In the case of “Rab11 family-interacting protein 2 (from UniProt Q7L804 1-512)”, the binding entry was “binds”.

“Copper-transporting ATPase 1 (from UniProt Q04656 1-1500)”: the binding result is listed as “binds”.

In the case of “Exocyst complex component 4 (from UniProt Q96A65 1-974)”, the binding entry was “binds”.

Regarding “Coxsackievirus and adenovirus receptor (from UniProt P78310 20-365)”, the binding result is recorded as “binds”.

Consider “Leucyl-cystinyl aminopeptidase; Leucyl-cystinyl aminopeptidase, pregnancy serum form (from UniProt Q9UIQ6 1-1025) (enzyme)”, for which the binding entry is “binds”.

As to “Lamin-B receptor (from UniProt Q14739 1-615)”, the binding result was “binds”.

As to “EH domain-binding protein 1 (from UniProt Q8NDI1 1-1231)”, the binding entry is “binds”.

“4F2 cell-surface antigen heavy chain (from UniProt P08195 1-529)”: the binding result was “binds”.

Turning to “Desmoglein-2 (from UniProt Q14126 50-1118)”, the binding result is given as “binds”.

With “Ras-related protein Rab-8A (from UniProt P61006 1-207)”, the binding entry is on record as “binds”.

For B1, the binding result is listed as “binds”.

As for B2, the binding result is “binds”.

As to B3, the binding result is “binds”.

With B4, the binding entry is reported as “binds”.

Turning to B5, the binding result is “binds”.

Take B6: the binding entry was “binds”.

Turning to B7, the binding result is “binds”.
